Reference: publication doi:10.1101/2021.04.13.439661
Results are given in words; binding and its absence hold for the method and conditions named.

Sequences of proteins named here, by UniProt entry; tags and fusion partners are left off. Residues count along the entry.
UniProt P08603, residues 19-1231: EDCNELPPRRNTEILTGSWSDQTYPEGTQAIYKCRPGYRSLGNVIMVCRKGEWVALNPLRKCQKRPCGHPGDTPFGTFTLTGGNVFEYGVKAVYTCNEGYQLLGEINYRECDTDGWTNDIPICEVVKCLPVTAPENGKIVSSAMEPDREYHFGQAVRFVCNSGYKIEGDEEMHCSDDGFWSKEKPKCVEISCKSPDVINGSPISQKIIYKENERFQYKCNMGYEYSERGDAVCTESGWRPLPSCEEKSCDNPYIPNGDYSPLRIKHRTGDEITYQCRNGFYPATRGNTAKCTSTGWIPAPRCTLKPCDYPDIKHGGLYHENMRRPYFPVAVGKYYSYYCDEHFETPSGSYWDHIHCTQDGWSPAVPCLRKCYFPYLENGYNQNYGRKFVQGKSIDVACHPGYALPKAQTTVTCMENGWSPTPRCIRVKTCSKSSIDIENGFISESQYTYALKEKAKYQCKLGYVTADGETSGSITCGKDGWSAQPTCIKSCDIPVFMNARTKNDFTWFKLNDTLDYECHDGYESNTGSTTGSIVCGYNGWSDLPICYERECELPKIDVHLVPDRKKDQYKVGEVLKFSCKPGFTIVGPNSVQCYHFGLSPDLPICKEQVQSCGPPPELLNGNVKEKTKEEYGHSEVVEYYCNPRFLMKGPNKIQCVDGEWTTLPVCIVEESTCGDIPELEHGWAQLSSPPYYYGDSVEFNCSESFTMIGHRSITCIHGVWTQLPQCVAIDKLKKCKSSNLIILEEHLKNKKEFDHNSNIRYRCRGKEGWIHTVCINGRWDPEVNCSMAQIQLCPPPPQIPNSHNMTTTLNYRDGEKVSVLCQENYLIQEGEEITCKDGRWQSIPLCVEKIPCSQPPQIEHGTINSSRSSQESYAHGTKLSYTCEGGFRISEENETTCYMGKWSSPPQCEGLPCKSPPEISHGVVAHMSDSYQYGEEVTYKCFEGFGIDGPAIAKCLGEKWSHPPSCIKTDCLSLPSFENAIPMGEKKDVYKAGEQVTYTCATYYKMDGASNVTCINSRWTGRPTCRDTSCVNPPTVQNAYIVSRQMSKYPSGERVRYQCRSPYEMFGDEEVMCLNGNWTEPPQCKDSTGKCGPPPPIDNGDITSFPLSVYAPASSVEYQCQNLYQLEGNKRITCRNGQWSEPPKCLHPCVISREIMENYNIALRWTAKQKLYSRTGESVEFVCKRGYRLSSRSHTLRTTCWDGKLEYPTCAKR

Biological target: T1, recombinant B. bacilliformis GroES (B. bacilliformis) (UniProt A1UTX8)
T1 sequence: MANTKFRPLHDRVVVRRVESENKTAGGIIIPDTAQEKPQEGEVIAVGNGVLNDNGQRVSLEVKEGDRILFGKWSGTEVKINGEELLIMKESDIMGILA
Experiment: far-Western

human complement factor H (from UniProt P08603 19-1231)
binding: no binding (tested: 5 ng/μl)
